Results are given in words; binding and its absence hold for the method and conditions named. For some assays here: Binding can be weak; no strength is given. For some assays here: Tags and fused reporters may be left off the sequences shown.
Columns and labels:
[1] = biological target: GST-tagged yeast PEX39 ∆APH (yeast) (UniProt P47087); assay: bead-binding assay (fluorescence on beads by spinning-disk confocal microscopy); glutathione beads incubated overnight with 5 µM GST–PEX39 (wild type or mutants), 5 µM yeast PEX7 and 1 µM PTS2–GFP; both purified
[2] = biological target: GST-tagged yeast PEX39 ∆APH (yeast) (UniProt P47087); assay: bead-binding assay (fluorescence on beads by spinning-disk confocal microscopy); GST-tagged protein on glutathione beads; GFP-fused partner in solution (1 µM each in Extended Data Fig. 9a); 1 h, RT; both purified
[3] = biological target: GST-tagged yeast PEX39 ∆APH (yeast) (UniProt P47087); assay: pull-down; quantitative: glutathione agarose with 1 µM yeast PEX7 and varying concentrations of GST-tagged PEX39 variants, Assay Buffer, 25 °C, 1 h; beads sedimented, PEX7 left in the supernatant quantified by SDS–PAGE and Coomassie; observed binding constants (Kobs); both purified
[4] = biological target: GST-tagged yeast PEX39 ∆RPWE (yeast) (UniProt P47087); assay: as above
[5] = biological target: GST-tagged yeast PEX39 ∆APH (yeast) (UniProt P47087); assay: pull-down; competition: glutathione beads with yeast PEX7 and GST-tagged PEX39 ∆APH (each 1 µM), 30 min at 25 °C, then varying concentrations of peptide for 1 h; beads sedimented, supernatant on SDS–PAGE with Coomassie; competitive-binding isotherm, observed binding constants (Kobs); both purified

The chains behind the UniProt entries cited, without tags or fusion partners. Where a name states a change or a piece, a line headed by the entry shows the natural chain unless it says otherwise.
UniProt P47087: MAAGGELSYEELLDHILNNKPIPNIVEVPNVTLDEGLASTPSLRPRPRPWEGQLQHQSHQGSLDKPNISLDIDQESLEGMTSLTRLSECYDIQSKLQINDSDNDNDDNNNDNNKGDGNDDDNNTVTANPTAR
UniProt P27796: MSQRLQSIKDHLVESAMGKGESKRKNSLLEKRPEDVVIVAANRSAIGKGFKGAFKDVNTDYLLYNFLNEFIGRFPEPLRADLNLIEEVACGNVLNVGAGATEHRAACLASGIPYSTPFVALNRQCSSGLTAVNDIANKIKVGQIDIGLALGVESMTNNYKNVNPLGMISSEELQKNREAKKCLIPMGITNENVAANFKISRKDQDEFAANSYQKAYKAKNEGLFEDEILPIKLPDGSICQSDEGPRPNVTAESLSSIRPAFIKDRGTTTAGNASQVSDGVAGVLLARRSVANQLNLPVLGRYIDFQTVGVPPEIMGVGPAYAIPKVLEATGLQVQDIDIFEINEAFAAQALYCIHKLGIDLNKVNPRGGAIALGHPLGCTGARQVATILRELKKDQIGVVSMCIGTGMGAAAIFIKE

“GFP fused at the N terminus to the PTS2 signal (residues 1–27) from yeast POT1 (PTS2–GFP) (from UniProt P27796) (domain or fragment)” was tested, and the binding [1] was “no binding (tested: 1 µM)”.

B1: yeast PEX7 fused at the C terminus to GFP (PEX7–GFP) (protein, UniProt P39108 1-375)
chain: MLRYHMQGFSGYGVQYSPFFDNRLAVAAGSNFGLVGNGKLFILEIDRSGRIVEVNSFLTQDCLFDLAWNESHENQVLVAQGDGTLRLFDTTFKEFPIAIFKEHEREVFSCNWNLVNRQNFLSSSWDGSIKIWSPLRKQSLMTLTPRPLEITKMVDPLNAIILKKKSFTGISKNRNCVYQAQFSPHDQNLVLSCSGNSYASLFDIRLPSGKNQNNFLVHSGLEALTCDFNKYRPYVVATGGVDNAIRIWDIRMLNKNESATIKRTVPGQLHNSSCINEIPNAHGLAIRKVTWSPHHSNILMSASYDMTCRIWRDLSNDGAKETYKTNSTDATKGSIFNFTQHSEFVFGADWSLWGKPGYVASTAWDGNLFVWNGLG
B1 was tested, and the binding [2] was “binds”.

B2: yeast PEX7 (protein, UniProt P39108 1-375)
chain: B1 chain
For B2, the binding [3] was “binds”, the binding [4] was “binds” and the binding [5] was “binds”.
